From patent US20230202973A1, “BARNESIN A, DERIVATIVES AND USES THEREOF” (Leibniz-Institut Für Naturstoff-Forschung Und …, priority 2018, published 2023)
Some results were stated once for a whole list of compounds, not compound by compound. For at least one compound, name, drawing or mass did not settle the structure.

Target: T1, trypsin (Bos taurus, UniProt P00760)
T1 construct: purchased Thermo Fisher 23266
T1 sequence (P00760 24-246): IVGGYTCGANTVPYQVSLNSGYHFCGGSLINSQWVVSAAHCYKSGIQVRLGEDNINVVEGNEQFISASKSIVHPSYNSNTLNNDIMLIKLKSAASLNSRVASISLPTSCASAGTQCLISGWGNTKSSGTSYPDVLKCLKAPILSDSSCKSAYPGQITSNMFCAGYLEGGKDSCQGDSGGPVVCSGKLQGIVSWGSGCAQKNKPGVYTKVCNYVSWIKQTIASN
Experiment: Protease assay with azocasein: trypsin
Assay type: biochemical
Conditions: 2 mM
Procedure: Protease Assays with azocasein: Protease inhibition assays against the proteases papain, ficin, trypsin, pepsin and thermolysin were performed according to the protocol of Garcia-Carreño (loc. cit.) in a reaction buffer containing 25 mM TRIS-HCl, 0.15 M NaCl, pH 7.2 (or pH 3.5 for aspartic protease). The total assay volume was 47 μL buffer with 2 μL of the protease as well as 1 μL of suitable inhibitor or corresponding inhibitor solvent (100% MeoH or water). […]
Inhibitors were dissolved in 100% MeOH or water and added to the assay (1 μL); final concentration: 2% MeOH. […] Extract absorbance controls were performed using inhibitor (1 μL in MeOH) without protease. […]
Samples were incubated with buffer and suitable inhibitor (or without for negative controls) for 1 h at r.t. and the reaction was started afterward by adding 50 μl of […] substrate and incubated for 1 h at 37° C. […] The hydrolyzed substrate supernatant was incubated in an equal volume of 0.5 N NaOH for 5 min and the absorbance was measured at 440 nm. […]
The log IC50 values were determined using the standard curves analyzing tool with four parameter logistic equation of SigmaPlot12 with technical triplicates. Propagation of error was calculated using the standard error and log IC50 values where the equation of error propagation is defined as Δy=0.43Δx/x.

## O=S(=O)(F)Cc1ccccc1 [PMFS, reference compound]
  inhibited enzyme activity (trypsin), control inhibitor: > 95%
